Paper PMC3904858
These are yes or no findings as the source states them, for the method shown. Binding seen in cells or lysates may run through a third protein. These calls come from enrichment with a bait or labelling near it, and not all partners need be listed.

Amino acid sequences for entries named in this document (tags omitted). Residues count along the entry.
UniProt O00206, residues 24-839: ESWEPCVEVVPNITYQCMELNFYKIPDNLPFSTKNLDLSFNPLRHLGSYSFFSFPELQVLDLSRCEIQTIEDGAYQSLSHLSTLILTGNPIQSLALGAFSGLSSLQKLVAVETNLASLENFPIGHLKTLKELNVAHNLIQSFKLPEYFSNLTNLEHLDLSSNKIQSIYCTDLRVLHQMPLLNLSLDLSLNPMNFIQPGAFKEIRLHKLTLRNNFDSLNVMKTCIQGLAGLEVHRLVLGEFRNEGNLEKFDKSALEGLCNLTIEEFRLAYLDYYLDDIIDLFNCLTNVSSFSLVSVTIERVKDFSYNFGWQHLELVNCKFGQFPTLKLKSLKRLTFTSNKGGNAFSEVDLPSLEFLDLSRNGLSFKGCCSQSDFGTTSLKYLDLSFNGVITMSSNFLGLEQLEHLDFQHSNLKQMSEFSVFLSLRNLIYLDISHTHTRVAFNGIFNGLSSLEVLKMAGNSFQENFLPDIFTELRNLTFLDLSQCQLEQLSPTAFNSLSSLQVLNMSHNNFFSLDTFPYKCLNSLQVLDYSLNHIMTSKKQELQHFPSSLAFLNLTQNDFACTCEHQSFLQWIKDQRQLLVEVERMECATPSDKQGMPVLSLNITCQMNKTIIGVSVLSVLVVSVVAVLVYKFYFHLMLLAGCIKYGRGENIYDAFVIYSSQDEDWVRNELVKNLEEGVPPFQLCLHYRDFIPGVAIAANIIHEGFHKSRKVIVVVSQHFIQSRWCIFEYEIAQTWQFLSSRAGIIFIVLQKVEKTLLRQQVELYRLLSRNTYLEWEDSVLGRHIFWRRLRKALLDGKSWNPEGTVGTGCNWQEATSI
UniProt P21333: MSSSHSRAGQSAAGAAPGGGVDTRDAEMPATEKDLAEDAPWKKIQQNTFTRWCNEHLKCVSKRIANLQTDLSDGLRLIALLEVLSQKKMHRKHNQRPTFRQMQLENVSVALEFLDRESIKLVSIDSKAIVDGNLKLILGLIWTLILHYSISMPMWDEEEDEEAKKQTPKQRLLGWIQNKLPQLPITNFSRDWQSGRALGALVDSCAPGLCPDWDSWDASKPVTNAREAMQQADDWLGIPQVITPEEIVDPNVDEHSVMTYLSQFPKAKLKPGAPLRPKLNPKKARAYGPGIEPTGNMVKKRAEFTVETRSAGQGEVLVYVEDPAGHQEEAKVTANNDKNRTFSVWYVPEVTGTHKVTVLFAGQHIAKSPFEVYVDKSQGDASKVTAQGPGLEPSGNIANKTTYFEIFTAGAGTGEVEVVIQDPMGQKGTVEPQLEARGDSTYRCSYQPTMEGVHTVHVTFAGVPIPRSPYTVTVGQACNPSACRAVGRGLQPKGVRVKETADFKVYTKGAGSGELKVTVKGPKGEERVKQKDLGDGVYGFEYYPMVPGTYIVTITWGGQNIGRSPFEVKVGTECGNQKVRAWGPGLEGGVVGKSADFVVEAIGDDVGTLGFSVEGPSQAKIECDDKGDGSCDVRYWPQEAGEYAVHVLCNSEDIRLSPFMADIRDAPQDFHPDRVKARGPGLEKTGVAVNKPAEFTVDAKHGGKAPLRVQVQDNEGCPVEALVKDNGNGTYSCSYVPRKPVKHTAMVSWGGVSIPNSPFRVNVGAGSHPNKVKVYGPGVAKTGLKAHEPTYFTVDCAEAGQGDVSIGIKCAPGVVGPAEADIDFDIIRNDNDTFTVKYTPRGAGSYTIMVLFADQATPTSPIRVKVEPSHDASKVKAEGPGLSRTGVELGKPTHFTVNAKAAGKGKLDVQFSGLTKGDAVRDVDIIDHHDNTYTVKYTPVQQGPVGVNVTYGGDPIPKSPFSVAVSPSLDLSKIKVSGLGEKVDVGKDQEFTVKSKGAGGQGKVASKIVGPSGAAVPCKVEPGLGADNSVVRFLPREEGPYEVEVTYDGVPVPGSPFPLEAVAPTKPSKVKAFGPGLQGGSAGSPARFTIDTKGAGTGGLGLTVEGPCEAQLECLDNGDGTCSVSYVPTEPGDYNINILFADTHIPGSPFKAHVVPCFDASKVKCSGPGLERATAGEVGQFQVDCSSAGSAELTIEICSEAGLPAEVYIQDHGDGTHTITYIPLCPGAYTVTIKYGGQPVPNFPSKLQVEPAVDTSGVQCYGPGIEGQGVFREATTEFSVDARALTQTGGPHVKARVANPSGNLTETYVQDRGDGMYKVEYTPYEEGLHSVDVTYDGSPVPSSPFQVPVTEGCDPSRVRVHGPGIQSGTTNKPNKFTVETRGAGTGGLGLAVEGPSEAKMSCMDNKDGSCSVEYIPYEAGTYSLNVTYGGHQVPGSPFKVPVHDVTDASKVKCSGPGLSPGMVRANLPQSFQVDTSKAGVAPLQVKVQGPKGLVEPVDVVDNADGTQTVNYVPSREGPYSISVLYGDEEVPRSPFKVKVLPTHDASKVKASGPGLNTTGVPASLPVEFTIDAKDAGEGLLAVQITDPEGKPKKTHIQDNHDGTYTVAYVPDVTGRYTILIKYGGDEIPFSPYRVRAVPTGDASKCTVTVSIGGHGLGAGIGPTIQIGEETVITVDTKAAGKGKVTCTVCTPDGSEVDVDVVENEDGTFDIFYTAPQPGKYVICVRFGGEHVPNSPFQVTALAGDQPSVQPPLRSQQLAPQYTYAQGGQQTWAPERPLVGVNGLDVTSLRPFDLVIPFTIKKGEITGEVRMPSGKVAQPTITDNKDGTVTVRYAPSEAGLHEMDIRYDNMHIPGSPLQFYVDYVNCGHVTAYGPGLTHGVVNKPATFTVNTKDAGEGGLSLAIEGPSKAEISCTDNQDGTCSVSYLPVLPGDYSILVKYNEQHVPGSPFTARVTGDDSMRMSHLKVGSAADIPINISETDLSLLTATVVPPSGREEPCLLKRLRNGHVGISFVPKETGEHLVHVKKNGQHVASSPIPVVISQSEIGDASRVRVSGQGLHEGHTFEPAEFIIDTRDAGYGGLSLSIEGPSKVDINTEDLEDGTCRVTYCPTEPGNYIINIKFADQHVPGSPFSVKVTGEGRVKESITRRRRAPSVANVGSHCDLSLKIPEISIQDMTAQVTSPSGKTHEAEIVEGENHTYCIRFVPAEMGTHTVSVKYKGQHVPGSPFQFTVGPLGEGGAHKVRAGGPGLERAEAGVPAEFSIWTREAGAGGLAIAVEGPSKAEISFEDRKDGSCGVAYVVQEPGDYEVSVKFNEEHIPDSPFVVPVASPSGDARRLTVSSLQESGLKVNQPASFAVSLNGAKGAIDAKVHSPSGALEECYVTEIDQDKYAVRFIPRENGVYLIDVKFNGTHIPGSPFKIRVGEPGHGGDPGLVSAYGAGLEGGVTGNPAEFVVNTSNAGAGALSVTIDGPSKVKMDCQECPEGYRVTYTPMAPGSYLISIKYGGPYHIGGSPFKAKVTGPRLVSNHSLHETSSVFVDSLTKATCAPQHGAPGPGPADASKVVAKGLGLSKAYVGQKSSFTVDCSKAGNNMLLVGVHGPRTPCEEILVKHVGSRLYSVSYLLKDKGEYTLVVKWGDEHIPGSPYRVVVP
UniProt P35579: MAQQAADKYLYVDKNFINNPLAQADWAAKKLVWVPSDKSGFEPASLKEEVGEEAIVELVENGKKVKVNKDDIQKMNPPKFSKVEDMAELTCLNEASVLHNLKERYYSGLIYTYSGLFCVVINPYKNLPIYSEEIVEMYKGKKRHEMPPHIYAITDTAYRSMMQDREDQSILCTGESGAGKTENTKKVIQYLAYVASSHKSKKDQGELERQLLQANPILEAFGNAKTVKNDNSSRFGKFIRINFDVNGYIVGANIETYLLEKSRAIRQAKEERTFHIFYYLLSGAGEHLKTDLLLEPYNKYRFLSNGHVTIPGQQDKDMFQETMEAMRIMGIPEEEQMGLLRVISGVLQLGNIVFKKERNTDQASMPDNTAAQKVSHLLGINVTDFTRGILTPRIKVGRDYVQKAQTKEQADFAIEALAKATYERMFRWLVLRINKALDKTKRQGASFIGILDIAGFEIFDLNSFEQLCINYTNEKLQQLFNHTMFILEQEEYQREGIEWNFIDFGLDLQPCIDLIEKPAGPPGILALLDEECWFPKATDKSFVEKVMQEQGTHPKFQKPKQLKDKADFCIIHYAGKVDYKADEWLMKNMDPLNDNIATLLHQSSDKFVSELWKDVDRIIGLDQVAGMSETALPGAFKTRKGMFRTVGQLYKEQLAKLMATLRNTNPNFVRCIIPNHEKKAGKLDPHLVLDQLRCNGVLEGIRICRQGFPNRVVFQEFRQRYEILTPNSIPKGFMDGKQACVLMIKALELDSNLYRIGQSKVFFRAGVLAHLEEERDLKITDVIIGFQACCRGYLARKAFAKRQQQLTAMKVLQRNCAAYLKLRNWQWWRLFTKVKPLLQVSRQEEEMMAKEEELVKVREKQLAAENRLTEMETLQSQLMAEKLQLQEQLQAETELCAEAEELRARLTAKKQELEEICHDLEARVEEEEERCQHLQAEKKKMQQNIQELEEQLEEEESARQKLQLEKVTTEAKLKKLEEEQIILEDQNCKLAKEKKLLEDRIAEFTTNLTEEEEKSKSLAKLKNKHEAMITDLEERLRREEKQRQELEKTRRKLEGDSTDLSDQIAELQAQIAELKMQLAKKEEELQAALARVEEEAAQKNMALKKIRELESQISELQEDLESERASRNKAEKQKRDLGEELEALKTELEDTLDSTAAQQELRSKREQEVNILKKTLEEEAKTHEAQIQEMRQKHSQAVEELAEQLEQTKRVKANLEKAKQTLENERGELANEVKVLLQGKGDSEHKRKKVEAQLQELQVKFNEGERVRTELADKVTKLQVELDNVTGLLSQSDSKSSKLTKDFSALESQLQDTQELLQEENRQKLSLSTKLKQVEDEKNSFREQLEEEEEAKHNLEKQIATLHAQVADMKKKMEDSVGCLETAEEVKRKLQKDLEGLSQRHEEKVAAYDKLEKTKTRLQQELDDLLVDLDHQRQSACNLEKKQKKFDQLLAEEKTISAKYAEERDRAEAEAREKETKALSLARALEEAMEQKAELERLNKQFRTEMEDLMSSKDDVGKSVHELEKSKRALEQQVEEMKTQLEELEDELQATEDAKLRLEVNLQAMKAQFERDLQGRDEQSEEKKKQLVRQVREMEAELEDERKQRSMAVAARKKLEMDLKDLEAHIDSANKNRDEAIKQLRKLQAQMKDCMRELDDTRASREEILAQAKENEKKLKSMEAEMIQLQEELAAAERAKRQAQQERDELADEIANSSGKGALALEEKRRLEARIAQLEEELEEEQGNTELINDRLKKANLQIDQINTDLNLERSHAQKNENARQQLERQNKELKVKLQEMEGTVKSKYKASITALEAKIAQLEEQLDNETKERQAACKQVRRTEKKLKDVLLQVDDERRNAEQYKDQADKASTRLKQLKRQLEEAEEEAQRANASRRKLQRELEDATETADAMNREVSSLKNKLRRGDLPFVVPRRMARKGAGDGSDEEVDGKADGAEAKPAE

Target: Toll-like receptor 4 (human (endogenous in platelets)) (UniProt O00206)
Test: affinity purification with mass spectrometry; untreated washed human platelet lysate; IP with anti-TLR4 antibody, mouse IgG IP as control; SDS-PAGE, Coomassie; bands present only in the anti-TLR4 IP excised, trypsin digest, nano-LC/MS/MS

Substance	binding
filamin A (from UniProt P21333 1-2647)	binds
myosin heavy chain-9 (myosin-9) (from UniProt P35579 1-1960)	binds
